# Measured values as given in PubChem BioAssay AID504467 (National Center for Advancing Translational Sciences (NCATS), 2011).
# Among all 330,000 compounds or so, about 7,700 (2.3%) were called active. This list was built around the results that the source calls inconclusive (neither active nor inactive); the mix of calls is not that of the screen. Calls come from the whole dose curve; as a rule, active = well fitted inhibition curve with a large enough effect; inconclusive = small, poorly fitted or top-dose-only effect, or effect the other way; inactive = flat fitted curve, though single readings scatter. A potency beside an inconclusive call is a rough fit, not a confirmed value.
# Experiment: qHTS screen for small molecules that inhibit ELG1-dependent DNA repair in human embryonic kidney (HEK293T) cells expressing luciferase-tagged ELG1; note: nearly all actives have a fitted effect of over 55% in size
# Settings: HEK293T ELG1-luciferase reporter, luminescence, 16 h, DNA damage induced by 5-fluorouridine; series mostly up to 46.1 µM
# How it was run: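 Luminescence from the luciferase reporter, measured 30 min after ONE-Glo reagent at room temperature, was the read-out. Beforehand, 2,000 cells per well were exposed for 16 hr at 37 °C to 5-fluorouridine together with compound or vehicle.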
# Potency is the fitted concentration of half-maximal effect.
row,Compound,Potency
1,COc1ccc(OC)c(S(=O)(=O)N2CCC(C(=O)N3CCN(c4ccc(F)cc4)CC3)CC2)c1,"inconclusive: 29.1 µM [inhibitor, single point]"
2,O=S(=O)(Nc1ncccn1)c1ccc(NC(=S)Nc2ccccc2Cl)cc1,inactive
3,Cc1cc2cc3c(=O)[nH]c(=O)[nH]c3nc2cc1C,inactive
4,O=C(Nc1ccc2c(c1)CCC2)c1cccc(S(=O)(=O)N2CCN(c3ccccc3)CC2)c1,inactive
5,COc1ccccc1NC(=O)c1sc(Cl)nc1C,inactive
6,CCOCCCNC(=O)CCN1C(=O)c2ccccc2Sc2ncccc21,inactive
7,O=C(O)CSc1c(-c2ccccc2)c2cc(Cl)ccc2[nH]c1=O,inactive
8,COc1ccc(-c2csc(NC(=O)C3CC(=O)N(Cc4ccccc4)C3)n2)cc1OC (centres undefined),active: 11.6 µM
9,O=C(Nc1ccc(NC(=O)c2ccco2)nc1)c1ccco1,"inconclusive: 2.31 µM [activator, full curve]"
10,O=C(c1ccc(Br)o1)N1CCN(c2ccc(F)cc2)CC1,inactive
11,Cc1nc2cc(NC(=O)N3CCCCC3)ccc2n1C,"inconclusive: 20.6 µM [activator, partial curve]"
12,c1ccc(-c2nc3c4ccccc4ccn3c2CN2CCOCC2)cc1,"inconclusive: 10.3 µM [activator, partial curve]"
13,COc1cc2c(cc1NC(=S)NC(=O)/C=C/c1ccc(OC)c(OC)c1)oc1ccccc12,inactive
14,COc1cc(C)c(C)cc1S(=O)(=O)N1CCN(Cc2ccc3c(c2)OCO3)CC1,"inconclusive: 16.4 µM [inhibitor, single point]"
15,CCn1c(=O)c2c(cnn2C)c2ccccc21,"inconclusive: 4.61 µM [inhibitor, partial curve]"
16,CCCCn1c(=N)n(CC(O)c2ccccc2)c2ccccc21 (centres undefined),"inconclusive: 4.61 µM [inhibitor, full curve]"
17,c1ccc2c(c1)NC1(CCCCCC1)n1c-2nc2ccccc21,"inconclusive: 9.2 µM [activator, partial curve]"
18,N#CCc1ccc(C(=O)c2ccccc2F)s1,"inconclusive: 23.1 µM [activator, partial curve]"
19,O=C(Cn1c(=O)c2cccn2c2cccnc21)N1CCN(c2ccccc2F)CC1,inactive
20,O=C1NC(=S)S/C1=C/c1ccc(N2CCOCC2)o1,"inconclusive: 16.4 µM [activator, partial curve]"
21,COc1ccc(NC(=O)Cn2nnc(-c3ccccc3NC(=O)c3cccs3)n2)cc1,inactive
22,Cc1cccc(C(=O)Oc2ccc(/C=N/NC(=O)c3ccccc3O)cc2)c1,"inconclusive: 18.4 µM [activator, single point]"
23,CN(C)C(=O)c1ccc(NC(=O)CN2C(=O)NC3(CCCc4ccccc43)C2=O)cc1 (centres undefined),inactive
24,C/C(=N/Nc1nc(-c2ccc(Cl)cc2)cs1)c1cccs1,"inconclusive: 23.1 µM [activator, partial curve, poor fit]"
25,Oc1ccc(C[C@@H]2CNC(=S)N2CCc2cc(C(F)(F)F)cc(C(F)(F)F)c2)cc1,inactive

# 17 successive records from above:
row,Compound,Potency
7,O=C(O)CSc1c(-c2ccccc2)c2cc(Cl)ccc2[nH]c1=O,inactive
8,COc1ccc(-c2csc(NC(=O)C3CC(=O)N(Cc4ccccc4)C3)n2)cc1OC (centres undefined),active: 11.6 µM
9,O=C(Nc1ccc(NC(=O)c2ccco2)nc1)c1ccco1,"inconclusive: 2.31 µM [activator, full curve]"
10,O=C(c1ccc(Br)o1)N1CCN(c2ccc(F)cc2)CC1,inactive
11,Cc1nc2cc(NC(=O)N3CCCCC3)ccc2n1C,"inconclusive: 20.6 µM [activator, partial curve]"
12,c1ccc(-c2nc3c4ccccc4ccn3c2CN2CCOCC2)cc1,"inconclusive: 10.3 µM [activator, partial curve]"
13,COc1cc2c(cc1NC(=S)NC(=O)/C=C/c1ccc(OC)c(OC)c1)oc1ccccc12,inactive
14,COc1cc(C)c(C)cc1S(=O)(=O)N1CCN(Cc2ccc3c(c2)OCO3)CC1,"inconclusive: 16.4 µM [inhibitor, single point]"
15,CCn1c(=O)c2c(cnn2C)c2ccccc21,"inconclusive: 4.61 µM [inhibitor, partial curve]"
16,CCCCn1c(=N)n(CC(O)c2ccccc2)c2ccccc21 (centres undefined),"inconclusive: 4.61 µM [inhibitor, full curve]"
17,c1ccc2c(c1)NC1(CCCCCC1)n1c-2nc2ccccc21,"inconclusive: 9.2 µM [activator, partial curve]"
18,N#CCc1ccc(C(=O)c2ccccc2F)s1,"inconclusive: 23.1 µM [activator, partial curve]"
19,O=C(Cn1c(=O)c2cccn2c2cccnc21)N1CCN(c2ccccc2F)CC1,inactive
20,O=C1NC(=S)S/C1=C/c1ccc(N2CCOCC2)o1,"inconclusive: 16.4 µM [activator, partial curve]"
21,COc1ccc(NC(=O)Cn2nnc(-c3ccccc3NC(=O)c3cccs3)n2)cc1,inactive
22,Cc1cccc(C(=O)Oc2ccc(/C=N/NC(=O)c3ccccc3O)cc2)c1,"inconclusive: 18.4 µM [activator, single point]"
23,CN(C)C(=O)c1ccc(NC(=O)CN2C(=O)NC3(CCCc4ccccc43)C2=O)cc1 (centres undefined),inactive

# Later entries.

row,Compound,Potency
1,Cc1ccc(CSc2[nH]c(=O)ncc2C)cc1,"inconclusive: 29.1 µM [activator, single point]"
2,COc1ccc(N2CCN(C(=O)c3ccc4nc(N5CCCCC5)sc4c3)CC2)cc1,"inconclusive: 29.1 µM [activator, single point]"
3,COc1cc(/C=N/O)ccc1OCc1ccccc1Cl,"inconclusive: 9.2 µM [activator, partial curve]"
4,COc1cccc(Nc2nn3c(=O)c4ccccc4nc3s2)c1,"inconclusive: 2.31 µM [activator, partial curve]"
5,Cc1ccc(Oc2nc3c(C)cccn3c(=O)c2/C=C(\C#N)C(N)=O)cc1,"inconclusive: 16.4 µM [inhibitor, partial curve, poor fit]"
6,CCCCSc1nnc(CCNC(=O)OC(C)(C)C)o1,inactive
7,CC(=O)CSc1nnc2c3ccccc3nc(C(C)(C)C)n12,inactive
8,CC1(CCc2ccccc2)NC(=O)N(CC(=O)Nc2c(F)cccc2F)C1=O (centres undefined),inactive
9,O=c1[nH]c(/C=C2\C=Nc3ccccc32)c(O)n1Cc1ccccc1F,"inconclusive: 29.1 µM [inhibitor, single point]"
10,O=C(NCCc1c[nH]c2ccccc12)c1ccccc1,"inconclusive: 15.8 µM [activator, partial curve, poor fit]"
11,COC(=O)c1nnn(CC(=O)NC(=O)Nc2ccccc2)c1C(=O)OC,inactive
12,O=C(O)c1ccc(/C=N/NC(=O)c2ccc(CN3c4cccc5cccc(c45)S3(=O)=O)cc2)cc1,"inconclusive: 14.6 µM [inhibitor, partial curve]"
13,COc1ccccc1-c1nc(COc2ccc(Cl)cc2Cl)no1,"inconclusive: 20.6 µM [activator, partial curve]"
14,O=C(Nc1cccc(-c2cscn2)c1)C1CCN(Cc2ccc(CO)o2)CC1,inactive
15,Cc1ccsc1C(=O)NC(C)c1ccc2c(c1)OCO2 (centres undefined),inactive
16,CNC(=S)Nc1ccc(N2CCN(c3ccc(C(F)(F)F)cn3)CC2)nc1,"inconclusive: 11.6 µM [inhibitor, partial curve]"
17,O=C1c2ccccc2CC1(Cc1ccccc1)Cc1ccccc1,inactive
18,COc1ccc(-c2nc(-c3ccncc3)no2)cc1OC,"inconclusive: 4.61 µM [activator, partial curve]"
19,COC(=O)[C@]1(Cc2ccccc2)N[C@H](CN(C)S(=O)(=O)c2ccc(OC(F)(F)F)cc2)[C@@H]2C(=O)N(Cc3ccccc3)C(=O)[C@@H]21,inactive
20,COCCSc1nnc(NC(=O)C2CCCO2)s1 (centres undefined),"inconclusive: 20.6 µM [activator, single point]"
21,CC1(C)NC(=O)N(CCCOc2ccc(Br)cc2Cl)C1=O,"inconclusive: 8.2 µM [activator, partial curve]"
22,OCc1cn(-c2ccccc2)nc1-c1ccc(-c2nn(-c3ccccc3)cc2CO)cc1,"inconclusive: 6.51 µM [inhibitor, single point]"
23,O=C(OCCN(C1=NS(=O)(=O)c2ccccc21)c1ccccc1Cl)c1ccc(Cl)cc1,inactive
24,O=C(C1CCC(Cn2c(=S)[nH]c3ccccc3c2=O)CC1)N1CCOCC1 (centres undefined),inactive
25,CNCc1ccccc1Sc1ccc(O)c(O)c1,inactive

row,Compound,Potency
1,C=CCC1(CC=C)CCCN1C(=O)C1CCC(=O)N(CCc2ccc(OC)cc2)C1 (centres undefined),"inconclusive: 6.51 µM [activator, partial curve]"
2,OC(CN1CCN(Cc2ccccc2)CC1)Cn1c2ccccc2c2ccccc21 (centres undefined),inactive
3,Cc1cc(C)nc(Nc2nc(-c3ccccc3)cs2)n1,"inconclusive: 0.126 µM [activator, full curve, poor fit]"
4,CCN(CC)S(=O)(=O)c1cccc(C(=O)/C=C2/N(C)c3ccccc3C2(C)C)c1,"inconclusive: 23.1 µM [inhibitor, single point]"
5,COc1ccc(N=NC2C(=O)N(c3ccccc3)N=C2C)cc1 (centres undefined),"inconclusive: 25.9 µM [activator, single point]"
6,Cc1cccc(NC(=S)N(CCCN2CCOCC2)Cc2cn(C)c3ccccc23)c1,"inconclusive: 23.1 µM [inhibitor, partial curve, poor fit]"
7,O=C(Nc1nnc(CSCc2ccc(Cl)cc2)s1)c1cccc([N+](=O)[O-])c1,inactive
8,CC(=O)c1cccc(S(=O)(=O)N2CCC(C(=O)NC3CCCC3)CC2)c1,"inconclusive: 0.231 µM [inhibitor, single point]"
9,CCCCn1c(SCC(=O)c2ccccc2)nc2ccsc2c1=O,"inconclusive: 29.1 µM [inhibitor, single point]"
10,C=C(C)Cn1c(-c2cccs2)n[nH]c1=S,inactive
11,CCCCOC(=O)Nc1ccc(C(C)C)cc1,"inconclusive: 14.6 µM [activator, partial curve]"
12,O=C(Nc1ccccc1)C1C2CCCCC21 (centres undefined),"inconclusive: 23.1 µM [activator, single point]"
13,COc1cccc(CNc2ccc([N+](=O)[O-])cc2Cl)c1O,"inconclusive: 1.16 µM [inhibitor, single point]"
14,Cc1ccc(N(C)S(=O)(=O)c2cc3c(cc2C)NC(=O)CO3)cc1,"inconclusive: 29.1 µM [inhibitor, single point]"
15,O=C(CSc1nc(=O)n2ccccc2n1)N1CCCc2ccccc21,inactive
16,Cc1ccc(CNc2ccc(N3CCN(C)CC3=O)cc2)cc1,"inconclusive: 13 µM [activator, partial curve]"
17,CCOC(=O)C1(CCCc2ccccc2)CCN(C(=O)CN2C(=O)CSC2=O)CC1,active: 11.6 µM
18,CC(C)OC(=O)/C(C#N)=C/c1cn(Cc2ccccc2)c2ccccc12,"inconclusive: 25.9 µM [inhibitor, partial curve]"
19,CC1(C)COC(c2ccc(F)c([N+](=O)[O-])c2)=N1,"inconclusive: 18.4 µM [inhibitor, partial curve, poor fit]"
20,Cn1nnnc1SCC(=O)Nc1nc(-c2ccc(F)c(F)c2)cs1,inactive
21,O=C(NCc1cccnc1)c1ccc(Cl)c(S(=O)(=O)N2CCCCCC2)c1,"inconclusive: 23.1 µM [inhibitor, single point]"
22,O=C(Nc1ccc2oc(-c3cccc(F)c3)nc2c1)c1ccccc1F,"inconclusive: 10.3 µM [activator, partial curve]"
23,CCN(CC(=O)Nc1ccc2c(c1)OCCO2)Cc1cc(=O)n2ccsc2n1,"inconclusive: 0.651 µM [inhibitor, single point]"
24,c1ccc(CCn2nnnc2C(c2cccs2)N2CCN(Cc3ccc4c(c3)OCO4)CC2)cc1 (centres undefined),"inconclusive: 16.4 µM [inhibitor, single point]"
